# Primary screen of a compound library

Sequences of proteins named here, by UniProt entry; tags and fusion partners are left off. Residues count along the entry.
UniProt P9WPC5, whole entry: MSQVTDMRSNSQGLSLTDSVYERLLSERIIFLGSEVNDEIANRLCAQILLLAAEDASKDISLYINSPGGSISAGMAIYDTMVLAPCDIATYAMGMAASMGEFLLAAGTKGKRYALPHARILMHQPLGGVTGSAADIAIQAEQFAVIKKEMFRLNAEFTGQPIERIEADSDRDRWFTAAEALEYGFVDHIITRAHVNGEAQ
UniProt P9WPC3, whole entry partner: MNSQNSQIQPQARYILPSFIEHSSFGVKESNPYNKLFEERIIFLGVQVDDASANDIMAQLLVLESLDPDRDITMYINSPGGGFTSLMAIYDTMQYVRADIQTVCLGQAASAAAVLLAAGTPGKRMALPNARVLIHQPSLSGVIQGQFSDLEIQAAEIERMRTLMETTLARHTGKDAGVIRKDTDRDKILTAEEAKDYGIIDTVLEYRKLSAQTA
UniProt P9WFT3, whole entry: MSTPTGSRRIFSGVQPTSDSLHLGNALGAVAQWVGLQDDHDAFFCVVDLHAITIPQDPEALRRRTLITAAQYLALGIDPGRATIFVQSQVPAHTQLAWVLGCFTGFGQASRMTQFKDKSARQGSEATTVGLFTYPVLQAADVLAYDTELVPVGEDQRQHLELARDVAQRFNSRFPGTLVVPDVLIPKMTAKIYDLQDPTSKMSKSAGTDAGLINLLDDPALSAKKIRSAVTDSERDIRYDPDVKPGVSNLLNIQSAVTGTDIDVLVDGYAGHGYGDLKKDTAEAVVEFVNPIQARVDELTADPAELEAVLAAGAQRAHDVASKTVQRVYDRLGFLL
UniProt Q8IDJ8, 1-583: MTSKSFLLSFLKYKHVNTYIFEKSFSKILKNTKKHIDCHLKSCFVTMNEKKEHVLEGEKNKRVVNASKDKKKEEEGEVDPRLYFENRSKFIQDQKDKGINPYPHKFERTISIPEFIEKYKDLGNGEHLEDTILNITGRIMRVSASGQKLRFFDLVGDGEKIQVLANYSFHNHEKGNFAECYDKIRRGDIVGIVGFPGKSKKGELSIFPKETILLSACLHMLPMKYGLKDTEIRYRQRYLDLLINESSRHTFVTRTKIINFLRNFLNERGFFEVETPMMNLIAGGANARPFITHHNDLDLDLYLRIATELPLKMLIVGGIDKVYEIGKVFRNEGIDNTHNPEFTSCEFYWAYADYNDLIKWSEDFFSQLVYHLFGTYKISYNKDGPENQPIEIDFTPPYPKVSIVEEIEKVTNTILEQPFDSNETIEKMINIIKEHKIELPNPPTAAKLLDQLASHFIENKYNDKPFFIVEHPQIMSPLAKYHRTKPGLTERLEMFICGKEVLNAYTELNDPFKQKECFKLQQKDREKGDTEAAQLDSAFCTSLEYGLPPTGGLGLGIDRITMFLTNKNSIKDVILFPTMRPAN

Source: ChEMBL document CHEMBL3988442, “University of Dundee, Small-Polar-MMV Screening Library” (2021).

Results are given as percent effect.
How 0% and 100% were set is not recorded. Most values in the screen are low, and negative values occur.
The compounds are a random part of those screened.

A: 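ClpP1P2, Mycobacterium tuberculosis (UniProt P9WPC5 and UniProt P9WPC3). Protease assay of ClpP1P2, read by the AMC dye that it sets free. Concentration: 50 µM. Higher reads as stronger inhibition, judged from the few compounds that gave an IC50. Most other retested compounds had strongly negative values. Of about 69,000 compounds tested this way, about 10 (0.015%) reached 50% or more in at least one test.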
B: 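Enzyme assay of tryptophanyl-tRNA synthetase; the read-out is not stated. Target: Tryptophan-tRNA ligase, Mycobacterium tuberculosis (UniProt P9WFT3). Compounds at 10 µM. Direction is not recorded; retested compounds ran higher, which suggests that high means inhibition. Size under these conditions: about 65,000 compounds, about 64 of them at 50% or above in at least one test.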
C: 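Enzyme assay of the cytosolic lysyl-tRNA synthetase in 384-well plates, read by luminescence. Target: Lysine-tRNA ligase, Plasmodium falciparum 3D7 (UniProt Q8IDJ8). Compounds at 30 µM. Direction is inferred from only a few compounds that gave an IC50; most scored high, so higher reads as stronger inhibition. Size under these conditions: about 69,000 compounds, about 49 of them at 50% or above in at least one test.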

NC(=O)c1nc2c(s1)CCN(C(=O)Nc1cccc(Cl)c1)CC2 read A: 0.1634%; C: 7.463%. With Clc1ccc(-c2nnc(CNCCn3cccn3)o2)c(Cl)c1 the screen gave A: -2.375%; B: -4.241%; C: 0.4078%. For CCOCC1CN(C(=O)c2ccncn2)Cc2cnn(CC)c21 (configuration not stated) the result was A: 9.39%; B: 1.299%; C: 0.05864%. Result for O=C(CSc1ccc2c(c1)OCCO2)NS(=O)(=O)c1cccnc1 was A: -7.125%; B: 3.047%; C: -1.771%. COCCCC1CCCN(Cc2c(C)ccc3ncccc23)C1 (configuration not stated) gave A: 0.5792%; B: 3.485%; C: 7.164%. For Cc1ccc(-c2nc(CN3CCCC3Cn3cc(C)cn3)no2)cc1 (configuration not stated) the result was A: 5.1%; B: -0.5912%; C: 3.122%. For Cc1cccc(CN2CCC3(CCCN(C(=O)c4ccsc4)C3)C2=O)n1 (configuration not stated) the result was A: -2.705%; B: -3.418%; C: 0.1427%.

CS(=O)(=O)c1ccc(NC(=O)NC2(c3ccccc3)CCC2)cc1 gave A: 4.757%; B: -6.433%; C: 3.6%. CCN(CC)C(=O)N1CCN(CCc2ccncc2)CC1 read A: -12.15%; B: 0.6623%; C: -2.091%. With Cc1ccc(N2C[C@H]3OCC[C@H]3[C@H](C(=O)NCC3CC3)C2)nn1 the screen gave A: -5.352%; B: -8.971%; C: -7.454%. CC(=O)N1CC[C@@H]2CN(C(=O)c3ccco3)CCO[C@@H]2C1 gave A: 6.948%; B: 1.233%; C: 2.61%. For Cc1noc(C)c1CSCc1nc(N)c2ccccc2n1 the result was A: -4.054%; B: 0.7333%; C: 11.53%. For O=C(Nc1ccccc1)C1CN(CC2CCOCC2)CC12CCOCC2 (configuration not stated) the result was A: 2.502%; B: -1.365%; C: 7.838%. Result for O=C(Nc1cccs1)NC(CCCO)c1ccccc1 (configuration not stated) was A: -9.554%; B: 1.336%; C: -2.429%.

Result for Cc1nc(CNc2ccccc2CCC(F)(F)F)cs1 was A: -12.16%; B: -1.052%; C: 5.932%. With CC(C)SCCNC(=O)c1cccc2ccnn12 the screen gave A: -57.1%; B: 0.805%; C: -0.658%. CN(CC1CCCCO1)c1nncc(-c2cccc(F)c2)n1 (configuration not stated) gave A: -10.26%; B: -0.5038%; C: 2.506%. O=C(c1cccc(Cl)c1Cl)N1CCN(CC(O)Cn2cccn2)CC1 (configuration not stated) read A: -12.16%; B: 1.49%; C: 3.861%. Result for Cn1c(C2CC2)nc2c1CCN(CCc1ccccn1)C2 was A: -1.338%; B: -4.025%; C: -0.6387%. Cc1noc(OCC(=O)N2CCCCC2C)n1 (configuration not stated) gave A: 3.617%; B: -0.6256%; C: 2.836%. O=C(c1ccccc1)N1CCC2(CC1)CC(Oc1ccccc1)CO2 (configuration not stated) gave A: 0.1324%; B: 1.754%; C: 10.01%.

Once more, the final 2:

{"compound": "Cc1noc(OCC(=O)N2CCCCC2C)n1", "stereo": "configuration not stated", "A": 3.617, "B": -0.6256, "C": 2.836}
{"compound": "O=C(c1ccccc1)N1CCC2(CC1)CC(Oc1ccccc1)CO2", "stereo": "configuration not stated", "A": 0.1324, "B": 1.754, "C": 10.01}